These are yes or no findings as the source states them, for the method shown. In cells and extracts the contact can be indirect. Some results given as binding are weak or reduced against the parent protein; the word gives no strength. Blank lines part the entries; values can stand above or below the molecule they belong to.
Experiments:
[1] = biological target: eukaryotic translation elongation factor 1B gamma (eEF1Bγ) (human (endogenous in A549)) (UniProt P26641); experiment: co-IP; pre-cleared nuclear extract of A549 cells (nuclear lysis buffer with 0.42 M NaCl); rabbit anti-eEF1Bγ antibodies (1.5 μg per 1 mg of total protein), Protein G Sepharose, 4°C; Western blot
[2] = biological target: eukaryotic translation elongation factor 1B gamma (eEF1Bγ) (human (endogenous in A549)) (UniProt P26641); experiment: co-IP; pre-cleared cytoplasmic extract of A549 cells; rabbit anti-eEF1Bγ antibodies (1.5 μg per 1 mg of total protein), Protein G Sepharose, 4°C; Western blot

By UniProt entry, the sequences of proteins in these tests, tags left out.
UniProt P26641: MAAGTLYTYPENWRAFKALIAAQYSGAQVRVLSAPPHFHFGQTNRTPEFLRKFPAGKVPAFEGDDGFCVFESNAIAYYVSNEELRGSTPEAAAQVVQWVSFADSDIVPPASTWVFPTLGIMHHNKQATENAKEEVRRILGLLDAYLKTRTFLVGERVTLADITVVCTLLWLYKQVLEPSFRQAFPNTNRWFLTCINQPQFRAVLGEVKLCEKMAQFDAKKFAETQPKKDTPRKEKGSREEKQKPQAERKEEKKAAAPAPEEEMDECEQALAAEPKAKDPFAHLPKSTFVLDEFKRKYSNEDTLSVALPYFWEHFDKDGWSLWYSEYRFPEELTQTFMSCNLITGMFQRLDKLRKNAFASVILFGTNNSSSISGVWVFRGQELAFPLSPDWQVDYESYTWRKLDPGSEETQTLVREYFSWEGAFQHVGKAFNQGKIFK
UniProt P29692: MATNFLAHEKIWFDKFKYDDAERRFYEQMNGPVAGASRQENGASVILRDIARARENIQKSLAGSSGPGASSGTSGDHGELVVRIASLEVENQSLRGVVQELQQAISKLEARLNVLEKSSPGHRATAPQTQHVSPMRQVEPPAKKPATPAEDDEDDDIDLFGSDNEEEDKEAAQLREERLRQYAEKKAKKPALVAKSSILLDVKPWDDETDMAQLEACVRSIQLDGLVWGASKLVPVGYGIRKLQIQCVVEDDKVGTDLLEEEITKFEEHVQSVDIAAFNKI

binding [1]: binds | binding [2]: binds
Molecule: eukaryotic translation elongation factor 1B beta (eEF1Bβ) (from UniProt P29692 1-281)

binding [1]: binds | binding [2]: binds
B1: eukaryotic translation elongation factor 1B alpha (eEF1Bα) (protein, UniProt P24534 1-225)
chain: MGFGDLKSPAGLQVLNDYLADKSYIEGYVPSQADVAVFEAVSSPPPADLCHALRWYNHIKSYEKEKASLPGVKKALGKYGPADVEDTTGSGATDSKDDDDIDLFGSDDEEESEEAKRLREERLAQYESKKAKKPALVAKSSILLDVKPWDDETDMAKLEECVRSIQADGLVWGSSKLVPVGYGIKKLQIQCVVEDDKVGTDMLEEQITAFEDYVQSMDVAAFNKI

Reference: publication PMC4265501
